In all, about 220,000 compounds went through this assay and about 770 (0.35%) were called active. The shares of active, inactive and inconclusive entries below differ from those in the screen. Rule as the data show it: active = binding response below about 49% or above about 150%; inconclusive = no clear call, values can overlap the other calls; inactive = in between.
What follows are compounds tested against Guanine nucleotide-binding protein G(o) subunit alpha (Homo sapiens) (UniProt P09471) (assay: RGS7-Galphao binding modulators, primary screen, biochemical, multiplexed bead flow cytometry (AID 1439;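 also: fluorescent Galphao held in activated GDP-AlF4 state binding bead-coupled RGS7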)). Details: at 10 µM, actives lie on both sides.

Chains of the proteins cited; added tags and fusions are not shown.
UniProt P09471, whole entry, looked up: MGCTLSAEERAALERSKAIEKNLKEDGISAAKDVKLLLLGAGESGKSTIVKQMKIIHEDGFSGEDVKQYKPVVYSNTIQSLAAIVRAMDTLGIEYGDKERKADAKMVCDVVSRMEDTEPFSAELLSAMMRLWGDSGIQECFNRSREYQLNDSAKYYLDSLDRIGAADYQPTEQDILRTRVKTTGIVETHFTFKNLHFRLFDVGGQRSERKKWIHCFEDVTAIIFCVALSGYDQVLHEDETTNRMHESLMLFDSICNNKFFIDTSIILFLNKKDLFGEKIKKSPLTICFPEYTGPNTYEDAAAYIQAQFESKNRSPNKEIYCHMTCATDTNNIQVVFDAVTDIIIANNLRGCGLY

Compound | binding response (% of control)
O=c1cc(CCl)nc2sc3ccccc3n12 | inconclusive: 54.4%
O=C(CN1CCN(Cc2ccc(Cl)cc2)CC1)N/N=C/c1cccc(F)c1 | inconclusive: 97.5%
NC(=O)c1nc(-c2ccco2)nc2c1[nH]c(=O)n2-c1ccc(Cl)c(Cl)c1 | inconclusive: 102%
Cc1ccc(-c2cc(-c3c(C)nn(C)c(=O)c3N)[nH]n2)cc1 | inconclusive: 86.2%
CC(C)(C)OC(=O)N[C@@H](CCCCNC(=O)OCc1ccccc1)c1nnc([C@H](CCCCNC(=O)OCc2ccccc2)NC(=O)OC(C)(C)C)o1 | inconclusive: 101%
C/C=C(/C)C(=O)Nc1cccc(C2=NOC3(C2)C[C@H](C(N)=O)N(C(=O)COc2ccc(Cl)cc2)C3)c1 (stereo partly specified) | inconclusive: 105%
CCC(=O)N(Cc1cc(=O)[nH]c2ccccc12)c1ccccc1C | inconclusive: 133%
Cn1c(=O)c2c(ncn2CCC(=O)N/N=C/c2cccnc2)n(C)c1=O | inconclusive: 99.6%
NS(=O)(=O)c1ccc(CCNC(=O)CCCCCn2c(=S)[nH]c3ccc(Br)cc3c2=O)cc1 | inactive: 121%
Cc1ccc(C2CCN(C(=S)Nc3cccc(C)c3)C2)cc1 (stereo unspecified) | inactive: 112%
O=C(c1cccc(F)c1)N1CCN(S(=O)(=O)Cc2ccccc2)CC1 | inconclusive: 89.2%
COc1cc(S(=O)(=O)N2CCOCC2)ccc1NC(=O)COC(=O)COc1ccccc1 | inconclusive: 116%
NC(=O)C1CCN(CC(O)CSc2ccccc2)CC1 (stereo unspecified) | inconclusive: 98.9%
COc1ccccc1N1CCN(C(=S)NC(=O)/C=C/c2ccc(F)cc2)CC1 | inconclusive: 91.4%
Cc1cc(-n2c(C)cc(C(=O)CCl)c2C)no1 | inconclusive: 88%
CC1CCN(C(=O)c2ccc(CNc3c(N4CCCC4)c(=O)c3=O)cc2)CC1 | inconclusive: 69.5%
O=C(Cc1cccs1)N=Nc1c(O)[nH]c2ccccc12 | inconclusive: 119%
NC(=O)CC(NC(=O)Cc1cccc2ccccc12)c1ccc(NCC2CC2)c([N+](=O)[O-])c1 (stereo unspecified) | inconclusive: 110%
COC(=O)C1=C2SCC(=O)N2C(N)=C(C#N)C1 | inconclusive: 589%

Compound | binding response (% of control)
COCCN1CCn2c(nc3cc(NC(=O)Cn4nc(C)c5ccccc5c4=O)ccc32)C1 | inconclusive: 80.9%
COc1ccc2[nH]c3c(c2c1)CCC/C3=N\N | inconclusive: 82.8%
N#C/C(=C(/O)CN1CCCC1)c1nc(-c2ccccc2)cs1 | inconclusive: 130%
CCn1c(=O)c([N+](=O)[O-])c(N2CCSCC2)c2ccccc21 | inconclusive: -105%
COc1cc(C(C(=O)NCc2ccccc2)N(Cc2ccco2)C(=O)c2cnccn2)cc(OC)c1OC (stereo unspecified) | inactive: 100%
CCCN1CCC(=NNc2ccc(C(=O)O)cc2)CC1 | inconclusive: 107%
COc1cc(C2C(C#N)=C(N)OC3=C2C(=O)CC(C)(C)C3)ccc1OCCN1CCOCC1 (stereo unspecified) | inconclusive: -166%
CC(=O)COc1cc(C)cc2oc(=O)cc(-c3ccccc3)c12 | inconclusive: 93.1%
Cc1ccccc1OCC(=O)Nc1nnc(-c2ccco2)s1 | inconclusive: 83.9%
CS(=O)(=O)c1ccc2nc(NC(=O)CCN3C(=O)c4ccccc4C3=O)sc2c1 | inconclusive: 117%
COc1ccc(/C=N/NC(=O)c2ccccc2F)cc1CN1CCN(c2ccc(F)cc2)CC1 | inactive: 98%
O=C(NCc1ccc(F)cc1)C(C(=O)NCc1ccc(F)cc1)c1ncc(C(F)(F)F)cc1Cl | inactive: 99.3%
COc1cc(O)c(C(CC(=O)N2CCCCC2)c2ccc3c(c2)OCO3)c(OC)c1 (stereo unspecified) | inconclusive: 105%
CSc1nc2cc(C)nn2c(-c2ccccc2)c1C#N | inconclusive: -90.8%
O=C(CNS(=O)(=O)c1c(Cl)cccc1Cl)OCC(=O)N1CCN(c2ccccc2)CC1 | inactive: 99.4%
OCCNC(=S)Nc1ccc2c(c1)OCCO2 | inconclusive: 107%
CC(=O)NC(=S)Nc1ccccc1N1CCCCC1 | inactive: 101%
COc1ccc2[nH]c(=O)c(CN(C(=O)C3CCCO3)c3ccc(C)c(C)c3)cc2c1 (stereo unspecified) | inconclusive: 110%
Cc1cc(C(=O)N(CCC#N)Cc2cccs2)no1 | inconclusive: 58.3%

Compound | binding response (% of control)
CN(C)CCNC(=O)C(=O)c1c(-c2ccccc2)cc2ccccn12 | inconclusive: 112%
Cc1onc(-c2c(F)cccc2Cl)c1C(=O)ONC(=O)c1ccco1 | inconclusive: 135%
CC1(C)Oc2ccc3ccc(=O)oc3c2C[C@H]1O | inconclusive: 110%
CCc1nnc(NC(=O)COc2ccc([N+](=O)[O-])cc2)s1 | inconclusive: 118%
CCOC(=O)C1CCN(C(=O)CSc2ccccc2Cl)CC1 | inconclusive: 88.3%
CCN1CCC2(CC1)Oc1c(OC)cccc1C1CC(c3cccnc3)=NN12 (stereo unspecified) | inconclusive: 93.3%
CCOC(=O)c1ccc2nc(C)c(CCC(C)=O)c(Cl)c2c1 | active: 18.7%
CNc1ccccc1C(C)(C)c1ccn[nH]1 | inconclusive: 107%
COC(OC)c1ccnc(-c2ccc(OC(=O)c3ccccc3)cc2)n1 | inconclusive: 95.2%
CCCNc1nc(C)cc(-c2cc(-c3ccccc3)on2)n1 | inconclusive: 97%
COc1ccccc1C1C(C(=O)NCc2ccccc2)=C(C)Nc2ncnn21 (stereo unspecified) | inactive: 98%
COc1cc2ccccc2cc1C(=O)NC(=S)Nc1cccc(C(=O)O)c1C | inconclusive: 128%
CN(C(=O)Cn1cc(C(F)(F)F)ccc1=O)c1c(N)n(Cc2ccccc2)c(=O)[nH]c1=O | inconclusive: -54.3%
COc1ccc(CNC(=O)CSc2nc3cccnc3s2)cc1 | inconclusive: 63.5%
CCN(CC)C(=O)C1(P(=O)(c2ccccc2)c2ccccc2)CCC1 | inconclusive: 90.8%
O=C(NCc1ccc2c(c1)OCO2)c1cc(-c2ccncc2)nc2ccccc12 | inconclusive: 103%
COc1ccc(-c2cn[nH]c2-c2ccc(OCc3ccccc3)cc2O)cc1OC | inconclusive: 111%
CC(C)(C#N)NC(=O)C(=O)c1c(-c2ccccc2)cc2ccccn12 | inconclusive: 102%

Rewritten in markdown: entries from further up.

| Compound | binding response (% of control) |
| --- | --- |
| COc1ccc2[nH]c(=O)c(CN(C(=O)C3CCCO3)c3ccc(C)c(C)c3)cc2c1 (stereo unspecified) | inconclusive: 110% |
| Cc1cc(C(=O)N(CCC#N)Cc2cccs2)no1 | inconclusive: 58.3% |
| CN(C)CCNC(=O)C(=O)c1c(-c2ccccc2)cc2ccccn12 | inconclusive: 112% |
| Cc1onc(-c2c(F)cccc2Cl)c1C(=O)ONC(=O)c1ccco1 | inconclusive: 135% |
| CC1(C)Oc2ccc3ccc(=O)oc3c2C[C@H]1O | inconclusive: 110% |
| CCc1nnc(NC(=O)COc2ccc([N+](=O)[O-])cc2)s1 | inconclusive: 118% |
| CCOC(=O)C1CCN(C(=O)CSc2ccccc2Cl)CC1 | inconclusive: 88.3% |
| CCN1CCC2(CC1)Oc1c(OC)cccc1C1CC(c3cccnc3)=NN12 (stereo unspecified) | inconclusive: 93.3% |
| CCOC(=O)c1ccc2nc(C)c(CCC(C)=O)c(Cl)c2c1 | active: 18.7% |
| CNc1ccccc1C(C)(C)c1ccn[nH]1 | inconclusive: 107% |
| COC(OC)c1ccnc(-c2ccc(OC(=O)c3ccccc3)cc2)n1 | inconclusive: 95.2% |
| CCCNc1nc(C)cc(-c2cc(-c3ccccc3)on2)n1 | inconclusive: 97% |
| COc1ccccc1C1C(C(=O)NCc2ccccc2)=C(C)Nc2ncnn21 (stereo unspecified) | inactive: 98% |
| COc1cc2ccccc2cc1C(=O)NC(=S)Nc1cccc(C(=O)O)c1C | inconclusive: 128% |
| COc1ccc(CNC(=O)CSc2nc3cccnc3s2)cc1 | inconclusive: 63.5% |
| O=C(NCc1ccc2c(c1)OCO2)c1cc(-c2ccncc2)nc2ccccc12 | inconclusive: 103% |
| COc1ccc(-c2cn[nH]c2-c2ccc(OCc3ccccc3)cc2O)cc1OC | inconclusive: 111% |

Source: PubChem BioAssay AID1439 (NMMLSC, 2008)
